Assay results published in the supplement of paper PMC10849652.
This is one part of the list.

Protein sequences, listed by entry. Tags and fused reporters are not part of them. Lines headed by an entry give the natural chain unless they say otherwise; changes in a name come on top.
UniProt O60547: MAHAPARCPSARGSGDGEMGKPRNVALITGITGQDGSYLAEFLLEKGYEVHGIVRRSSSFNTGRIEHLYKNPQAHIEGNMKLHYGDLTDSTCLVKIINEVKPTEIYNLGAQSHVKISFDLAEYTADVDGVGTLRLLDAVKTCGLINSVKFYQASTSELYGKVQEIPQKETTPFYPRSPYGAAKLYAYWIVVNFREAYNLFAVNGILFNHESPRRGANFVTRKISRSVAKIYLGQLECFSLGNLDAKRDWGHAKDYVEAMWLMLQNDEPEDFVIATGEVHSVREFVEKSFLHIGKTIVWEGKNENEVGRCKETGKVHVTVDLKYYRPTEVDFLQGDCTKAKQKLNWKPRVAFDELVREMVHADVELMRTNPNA
UniProt P46926: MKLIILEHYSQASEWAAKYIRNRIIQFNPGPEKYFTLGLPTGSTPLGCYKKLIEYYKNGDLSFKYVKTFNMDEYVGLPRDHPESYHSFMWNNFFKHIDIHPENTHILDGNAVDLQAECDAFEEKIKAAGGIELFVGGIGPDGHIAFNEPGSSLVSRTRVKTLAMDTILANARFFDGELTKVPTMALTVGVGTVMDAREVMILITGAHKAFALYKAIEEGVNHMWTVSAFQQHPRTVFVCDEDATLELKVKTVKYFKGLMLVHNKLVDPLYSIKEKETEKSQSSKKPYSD
UniProt O14908: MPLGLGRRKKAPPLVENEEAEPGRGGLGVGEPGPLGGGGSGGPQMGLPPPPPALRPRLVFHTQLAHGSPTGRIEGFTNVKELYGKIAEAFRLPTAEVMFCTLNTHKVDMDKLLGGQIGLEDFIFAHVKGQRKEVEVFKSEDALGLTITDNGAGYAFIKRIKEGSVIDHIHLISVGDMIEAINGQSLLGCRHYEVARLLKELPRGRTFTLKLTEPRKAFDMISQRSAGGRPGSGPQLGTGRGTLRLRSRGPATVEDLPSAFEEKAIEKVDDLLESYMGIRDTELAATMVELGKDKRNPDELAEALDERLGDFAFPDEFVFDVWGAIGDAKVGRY
UniProt Q9UJ14: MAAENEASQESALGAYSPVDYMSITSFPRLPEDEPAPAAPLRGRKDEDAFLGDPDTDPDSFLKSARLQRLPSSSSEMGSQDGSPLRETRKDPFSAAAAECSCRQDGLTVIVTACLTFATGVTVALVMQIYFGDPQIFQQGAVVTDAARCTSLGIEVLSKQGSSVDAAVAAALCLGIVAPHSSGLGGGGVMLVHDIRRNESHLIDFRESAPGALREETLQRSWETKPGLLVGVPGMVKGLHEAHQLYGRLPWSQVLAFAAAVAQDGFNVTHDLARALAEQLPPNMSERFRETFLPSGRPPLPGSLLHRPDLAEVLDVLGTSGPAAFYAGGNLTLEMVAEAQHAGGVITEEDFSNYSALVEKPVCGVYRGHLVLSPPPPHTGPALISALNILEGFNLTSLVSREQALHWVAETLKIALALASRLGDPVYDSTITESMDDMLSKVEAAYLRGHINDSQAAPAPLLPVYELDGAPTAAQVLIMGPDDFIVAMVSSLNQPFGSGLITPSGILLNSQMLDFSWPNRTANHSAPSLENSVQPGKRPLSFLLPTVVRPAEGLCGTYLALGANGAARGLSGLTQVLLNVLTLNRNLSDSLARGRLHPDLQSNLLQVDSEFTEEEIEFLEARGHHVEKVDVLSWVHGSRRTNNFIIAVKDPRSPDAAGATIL
UniProt Q5T3I0: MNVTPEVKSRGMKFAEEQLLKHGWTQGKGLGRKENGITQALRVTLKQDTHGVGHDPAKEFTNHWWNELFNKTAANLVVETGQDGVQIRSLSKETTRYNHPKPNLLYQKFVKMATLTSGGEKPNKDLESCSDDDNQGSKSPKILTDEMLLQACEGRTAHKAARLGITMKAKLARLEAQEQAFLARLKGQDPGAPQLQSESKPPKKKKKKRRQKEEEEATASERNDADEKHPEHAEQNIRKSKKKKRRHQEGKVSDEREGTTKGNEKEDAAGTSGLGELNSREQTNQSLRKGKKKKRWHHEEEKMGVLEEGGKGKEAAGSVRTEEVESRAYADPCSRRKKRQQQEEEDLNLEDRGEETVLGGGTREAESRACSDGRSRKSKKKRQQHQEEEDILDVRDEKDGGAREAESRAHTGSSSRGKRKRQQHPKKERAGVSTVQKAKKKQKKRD
UniProt Q96EK6: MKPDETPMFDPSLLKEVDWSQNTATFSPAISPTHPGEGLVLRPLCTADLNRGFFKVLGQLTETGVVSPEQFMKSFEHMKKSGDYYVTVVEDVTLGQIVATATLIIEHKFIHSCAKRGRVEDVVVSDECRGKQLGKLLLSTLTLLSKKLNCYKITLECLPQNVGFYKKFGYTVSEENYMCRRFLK
UniProt Q3T8J9: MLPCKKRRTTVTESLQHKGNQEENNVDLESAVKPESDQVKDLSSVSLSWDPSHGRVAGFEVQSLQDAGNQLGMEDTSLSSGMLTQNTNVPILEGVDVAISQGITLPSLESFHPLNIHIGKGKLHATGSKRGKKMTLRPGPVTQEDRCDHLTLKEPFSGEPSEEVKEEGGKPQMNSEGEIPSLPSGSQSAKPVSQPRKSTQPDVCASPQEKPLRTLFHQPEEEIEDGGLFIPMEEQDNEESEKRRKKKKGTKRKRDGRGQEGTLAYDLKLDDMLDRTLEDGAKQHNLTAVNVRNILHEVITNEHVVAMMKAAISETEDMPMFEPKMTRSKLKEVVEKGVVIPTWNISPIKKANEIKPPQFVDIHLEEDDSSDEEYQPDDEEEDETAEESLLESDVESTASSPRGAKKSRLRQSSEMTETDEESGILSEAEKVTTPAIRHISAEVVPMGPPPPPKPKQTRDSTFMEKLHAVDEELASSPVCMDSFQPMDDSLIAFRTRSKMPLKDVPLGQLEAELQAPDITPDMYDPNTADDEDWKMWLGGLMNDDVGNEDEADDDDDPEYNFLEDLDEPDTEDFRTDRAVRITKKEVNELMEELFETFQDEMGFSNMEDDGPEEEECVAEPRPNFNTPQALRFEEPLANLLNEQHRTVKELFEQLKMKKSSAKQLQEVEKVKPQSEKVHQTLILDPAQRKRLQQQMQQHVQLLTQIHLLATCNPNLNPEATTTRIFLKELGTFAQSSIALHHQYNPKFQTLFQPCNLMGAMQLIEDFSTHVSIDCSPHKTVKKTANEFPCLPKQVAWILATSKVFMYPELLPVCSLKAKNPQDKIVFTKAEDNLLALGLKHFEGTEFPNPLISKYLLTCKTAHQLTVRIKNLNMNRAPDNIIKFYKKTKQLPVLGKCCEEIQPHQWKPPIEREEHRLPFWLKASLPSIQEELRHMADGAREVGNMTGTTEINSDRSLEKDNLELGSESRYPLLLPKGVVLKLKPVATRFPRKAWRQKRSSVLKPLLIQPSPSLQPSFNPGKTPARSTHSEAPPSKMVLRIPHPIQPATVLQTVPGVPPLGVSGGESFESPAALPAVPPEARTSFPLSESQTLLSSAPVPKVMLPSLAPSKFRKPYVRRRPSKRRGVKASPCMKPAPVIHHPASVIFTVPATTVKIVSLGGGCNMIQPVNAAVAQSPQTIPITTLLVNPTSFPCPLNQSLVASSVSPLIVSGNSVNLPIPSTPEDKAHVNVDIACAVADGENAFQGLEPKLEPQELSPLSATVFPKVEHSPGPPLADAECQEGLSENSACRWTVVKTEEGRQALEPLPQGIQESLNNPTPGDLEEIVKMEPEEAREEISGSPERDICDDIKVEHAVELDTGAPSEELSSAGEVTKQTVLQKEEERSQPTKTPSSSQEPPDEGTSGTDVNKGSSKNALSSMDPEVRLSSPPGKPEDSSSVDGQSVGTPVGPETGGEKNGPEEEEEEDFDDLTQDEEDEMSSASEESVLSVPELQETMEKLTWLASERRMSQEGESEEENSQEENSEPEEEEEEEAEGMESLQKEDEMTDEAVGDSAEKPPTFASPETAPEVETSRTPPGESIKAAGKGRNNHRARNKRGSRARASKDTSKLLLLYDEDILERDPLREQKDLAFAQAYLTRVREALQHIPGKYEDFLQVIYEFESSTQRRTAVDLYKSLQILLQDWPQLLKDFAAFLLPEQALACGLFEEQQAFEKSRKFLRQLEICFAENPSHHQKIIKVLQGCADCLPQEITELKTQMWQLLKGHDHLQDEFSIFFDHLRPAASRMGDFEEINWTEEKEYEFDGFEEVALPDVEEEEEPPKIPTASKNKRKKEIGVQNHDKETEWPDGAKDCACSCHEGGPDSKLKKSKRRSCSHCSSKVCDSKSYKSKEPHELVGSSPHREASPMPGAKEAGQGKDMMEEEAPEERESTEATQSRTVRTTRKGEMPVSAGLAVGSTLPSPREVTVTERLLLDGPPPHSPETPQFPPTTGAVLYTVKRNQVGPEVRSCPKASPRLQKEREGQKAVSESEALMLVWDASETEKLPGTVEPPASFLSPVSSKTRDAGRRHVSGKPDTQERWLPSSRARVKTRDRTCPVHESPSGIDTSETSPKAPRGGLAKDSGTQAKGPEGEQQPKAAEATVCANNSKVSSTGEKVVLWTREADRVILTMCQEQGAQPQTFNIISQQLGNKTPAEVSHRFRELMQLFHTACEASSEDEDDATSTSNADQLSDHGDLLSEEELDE
UniProt I6L899: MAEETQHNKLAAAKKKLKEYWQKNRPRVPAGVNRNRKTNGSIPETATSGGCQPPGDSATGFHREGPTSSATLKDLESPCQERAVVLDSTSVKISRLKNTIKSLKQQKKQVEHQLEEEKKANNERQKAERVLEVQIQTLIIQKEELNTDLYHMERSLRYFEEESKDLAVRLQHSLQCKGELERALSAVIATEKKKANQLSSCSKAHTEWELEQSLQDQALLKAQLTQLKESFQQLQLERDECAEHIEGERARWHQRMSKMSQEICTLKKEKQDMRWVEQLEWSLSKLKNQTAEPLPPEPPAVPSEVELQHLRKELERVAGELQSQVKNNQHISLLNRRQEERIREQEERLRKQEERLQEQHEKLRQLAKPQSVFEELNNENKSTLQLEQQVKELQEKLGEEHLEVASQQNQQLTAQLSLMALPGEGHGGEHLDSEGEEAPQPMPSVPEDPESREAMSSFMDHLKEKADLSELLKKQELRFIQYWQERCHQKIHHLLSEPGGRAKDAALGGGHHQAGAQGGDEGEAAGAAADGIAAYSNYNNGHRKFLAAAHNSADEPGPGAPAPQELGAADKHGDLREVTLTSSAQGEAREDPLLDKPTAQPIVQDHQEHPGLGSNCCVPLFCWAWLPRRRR
UniProt Q5VW38: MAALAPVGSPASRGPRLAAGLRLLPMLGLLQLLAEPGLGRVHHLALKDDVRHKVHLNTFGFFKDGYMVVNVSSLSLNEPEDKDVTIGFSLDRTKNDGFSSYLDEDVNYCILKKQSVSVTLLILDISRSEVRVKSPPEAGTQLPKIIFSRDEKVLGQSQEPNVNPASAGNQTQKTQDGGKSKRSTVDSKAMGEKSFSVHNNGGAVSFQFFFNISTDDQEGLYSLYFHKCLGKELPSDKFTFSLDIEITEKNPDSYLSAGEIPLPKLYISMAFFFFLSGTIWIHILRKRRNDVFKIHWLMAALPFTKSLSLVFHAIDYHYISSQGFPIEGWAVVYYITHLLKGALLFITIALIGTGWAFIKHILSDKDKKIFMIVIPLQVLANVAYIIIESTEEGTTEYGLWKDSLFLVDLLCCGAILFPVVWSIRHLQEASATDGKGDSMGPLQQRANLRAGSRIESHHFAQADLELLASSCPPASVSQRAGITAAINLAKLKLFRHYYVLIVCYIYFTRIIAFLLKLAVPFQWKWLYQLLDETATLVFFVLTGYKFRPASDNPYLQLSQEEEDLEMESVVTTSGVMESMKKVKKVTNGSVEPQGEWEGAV
UniProt P32189: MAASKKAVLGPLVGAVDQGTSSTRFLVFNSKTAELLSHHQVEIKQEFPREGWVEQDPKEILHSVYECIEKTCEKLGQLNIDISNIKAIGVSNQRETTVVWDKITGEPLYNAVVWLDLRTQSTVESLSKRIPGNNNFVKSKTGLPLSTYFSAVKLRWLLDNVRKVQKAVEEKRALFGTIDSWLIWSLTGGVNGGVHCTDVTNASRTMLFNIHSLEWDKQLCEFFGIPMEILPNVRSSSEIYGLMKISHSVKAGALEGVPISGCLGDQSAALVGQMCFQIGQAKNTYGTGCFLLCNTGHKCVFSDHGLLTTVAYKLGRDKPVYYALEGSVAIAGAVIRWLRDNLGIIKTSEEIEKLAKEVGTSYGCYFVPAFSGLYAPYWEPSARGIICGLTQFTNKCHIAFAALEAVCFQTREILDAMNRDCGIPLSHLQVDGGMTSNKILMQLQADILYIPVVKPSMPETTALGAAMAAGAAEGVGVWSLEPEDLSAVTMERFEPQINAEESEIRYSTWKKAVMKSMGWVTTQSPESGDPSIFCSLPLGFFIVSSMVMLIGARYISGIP
UniProt Q8TDQ7: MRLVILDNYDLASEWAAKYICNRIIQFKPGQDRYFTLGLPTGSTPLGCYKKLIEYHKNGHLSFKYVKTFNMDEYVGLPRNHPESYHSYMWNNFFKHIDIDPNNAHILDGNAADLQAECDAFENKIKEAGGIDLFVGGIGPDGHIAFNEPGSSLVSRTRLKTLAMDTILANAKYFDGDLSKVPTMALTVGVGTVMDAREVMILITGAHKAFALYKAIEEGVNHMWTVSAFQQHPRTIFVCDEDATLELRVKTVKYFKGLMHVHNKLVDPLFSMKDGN

Legend:
Experiment in all cases: log2 fold change, soluble protein after heating vs DMSO (PISA); higher = thermal stabilisation; K562 lysate, 10 uM; active = over 0.2 and 3.5 SD of the protein, either way, in both replicates (recomputed)
nilotinib = compound: Cc1cn(-c2cc(NC(=O)c3ccc(C)c(Nc4nccc(-c5cccnc5)n4)c3)cc(C(F)(F)F)c2)cn1 [nilotinib]
Procedure, shortened: (§1)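 A 30 min treatment with 10 μM compound was applied to crude K562 extract at 1 mg/mL protein in PBS pH 7.4 with 1 mM MgCl2. Heating for 3 min spanned 48°C-58°C, after which aliquots were pooled, adjusted to 0.5% NP-40 at 4°C and spun at 21,000xg for 90 min. TMTpro 16plex LC-MS/MS of the supernatant, with channel sums equalised, gave values recorded as log-two fold change in thermal stability against solvent controls, from duplicates.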

[1] = compound: Cc1nc(Nc2n[nH]c3c2CN(C(=O)N[C@H](CN(C)C)c2ccccc2)C3(C)C)c2sccc2n1
Procedure, shortened: as §1

dasatinib = compound: Cc1nc(Nc2ncc(C(=O)Nc3c(C)cccc3Cl)s2)cc(N2CCN(CCO)CC2)n1 [dasatinib]
Procedure, shortened: as §1

[2] = compound: Cc1ncc(-c2ccnc(Nc3ccc(S(C)(=O)=O)cc3)n2)n1C(C)C
Procedure, shortened: as §1

[3] = compound: Cn1cc(-c2ccc3c(c2)CCN3C(=O)Cc2cccc(C(F)(F)F)c2)c2c(N)ncnc21
Procedure, shortened: as §1

quisinostat = compound: Cn1cc(CNCC2CCN(c3ncc(C(=O)NO)cn3)CC2)c2ccccc21 [quisinostat]
Procedure, shortened: as §1

tipifarnib = compound: Cn1cncc1[C@@](N)(c1ccc(Cl)cc1)c1ccc2c(c1)c(-c1cccc(Cl)c1)cc(=O)n2C [tipifarnib]
Procedure, shortened: as §1

[4] = compound: NC(=O)Nc1cc(-c2cccc(F)c2)sc1C(=O)N[C@H]1CCCNC1
Procedure, shortened: as §1

[5] = compound: NC(=O)c1cnc(N[C@@H]2CCCC[C@@H]2N)nc1Nc1cccc(-n2nccn2)c1
Procedure, shortened: as §1

[6] = compound: NC1(c2ccc(-c3nc4ccn5c(=O)[nH]nc5c4cc3-c3ccccc3)cc2)CCC1
Procedure, shortened: as §1

Measured: log2 fold change

GMDS (UniProt O60547)
inactive: nilotinib -0.023 | [1] 0.05 | dasatinib -0.043 | [2] -0.03 | [3] -0.013 | quisinostat -0.041 | tipifarnib 0.029 | [4] 0.038 | [5] -0.005 | [6] -0.029

GLO1 (UniProt Q04760)
inactive: nilotinib 0.053 | [1] -0.037 | dasatinib -0.009 | [2] -0.017 | [3] -0.011 | quisinostat -0.021 | tipifarnib -0.005 | [4] -0.025 | [5] 0.002 | [6] 0.005

GOLT1B (UniProt Q9Y3E0)
inactive: nilotinib -0.005 | [1] 0.077 | dasatinib 0.013 | [2] 0.085 | [3] 0.056 | quisinostat -0.038 | tipifarnib -0.043 | [4] 0.046 | [5] -0.014 | [6] -0.047

GLCCI1 (UniProt Q86VQ1)
inactive: nilotinib 0.043 | [1] -0.075 | dasatinib 0.001 | [2] -0.029 | [3] 0.03 | quisinostat -0.049 | tipifarnib 0.01 | [4] 0.026 | [5] -0.003 | [6] 0.045

GOT2 (UniProt P00505)
inactive: nilotinib 0.06 | [1] -0.006 | dasatinib 0.04 | [2] -0.005 | [3] -0.006 | quisinostat 0.011 | tipifarnib 0.028 | [4] -0.027 | [5] -0.01 | [6] 0.017

GOLGA7 (UniProt Q7Z5G4)
inactive: nilotinib -0.007 | [1] 0.009 | dasatinib -0.014 | [2] -0.069 | [3] 0.015 | quisinostat -0.012 | tipifarnib 0.017 | [4] -0.035 | [5] 0.003 | [6] -0.005

GNPDA1 (UniProt P46926)
inactive: nilotinib -0.002 | [1] -0.008 | dasatinib 0.023 | [2] -0.033 | [3] -0.017 | quisinostat 0 | tipifarnib 0.026 | [4] -0.009 | [5] -0.002 | [6] -0.004

GOLGB1 (UniProt Q14789)
inactive: nilotinib -0.007 | [1] 0.024 | dasatinib -0.017 | [2] 0.006 | [3] 0.027 | quisinostat -0.022 | tipifarnib -0.015 | [4] 0.002 | [5] 0.017 | [6] -0.019

GIPC1 (UniProt O14908)
inactive: nilotinib 0.006 | [1] 0.011 | dasatinib 0.071 | [2] -0.014 | [3] -0.011 | quisinostat 0.046 | tipifarnib 0.042 | [4] -0.014 | [5] 0.026 | [6] -0.021

GGPS1 (UniProt O95749)
inactive: nilotinib -0.014 | [1] -0.005 | dasatinib -0.028 | [2] -0.017 | [3] 0.006 | quisinostat 0.05 | tipifarnib 0.017 | [4] -0.007 | [5] -0.024 | [6] 0.002

GPKOW (UniProt Q92917)
inactive: nilotinib -0.03 | [1] 0.008 | dasatinib -0.003 | [2] -0.034 | [3] 0.015 | quisinostat -0.001 | tipifarnib -0.002 | [4] -0.002 | [5] 0 | [6] 0.022

GPBP1 isoform 2 (UniProt Q86WP2)
inactive: nilotinib -0.237 | [1] 0.18 | dasatinib 0.044 | [2] -0.119 | [3] 0.002 | quisinostat -0.059 | tipifarnib -0.176 | [4] 0.022 | [5] 0.006 | [6] 0.077

GGT7 (UniProt Q9UJ14)
inactive: nilotinib -0.061 | [1] -0.023 | dasatinib -0.083 | [2] 0.014 | [3] -0.012 | quisinostat 0.092 | tipifarnib -0.008 | [4] 0.071 | [5] 0.007 | [6] 0.02

GOSR1 (UniProt O95249)
inactive: nilotinib -0.02 | [1] 0.016 | dasatinib -0.043 | [2] 0.038 | [3] -0.032 | quisinostat 0.02 | tipifarnib -0.028 | [4] -0.009 | [5] -0.022 | [6] -0.014

GLRX3 (UniProt O76003)
inactive: nilotinib 0.022 | [1] -0.028 | dasatinib 0.011 | [2] 0.016 | [3] -0.013 | quisinostat 0.004 | tipifarnib 0.028 | [4] 0.005 | [5] -0.038 | [6] 0.007

GPR108 (UniProt Q9NPR9)
inactive: nilotinib 0.044 | [1] 0.033 | dasatinib -0.035 | [2] 0.011 | [3] -0.057 | quisinostat -0.063 | tipifarnib -0.088 | [4] -0.013 | [5] 0.046 | [6] -0.002

GPATCH4 isoform 3 (UniProt Q5T3I0)
inactive: nilotinib 0.004 | [1] 0.039 | dasatinib 0.036 | [2] 0.052 | [3] 0.01 | quisinostat -0.09 | tipifarnib -0.116 | [4] 0.036 | [5] -0.074 | [6] 0.004

GNPNAT1 (UniProt Q96EK6)
inactive: nilotinib 0.061 | [1] 0.004 | dasatinib -0.065 | [2] 0.007 | [3] -0.046 | quisinostat 0.069 | tipifarnib -0.007 | [4] -0.051 | [5] -0.028 | [6] -0.043

GLUL (UniProt P15104)
inactive: nilotinib -0.008 | [1] -0.012 | dasatinib 0.054 | [2] -0.026 | [3] -0.002 | quisinostat 0.071 | tipifarnib 0.027 | [4] -0.032 | [5] 0.009 | [6] -0.003

GON4L (UniProt Q3T8J9)
inactive: nilotinib 0.003 | [1] 0.012 | dasatinib 0.025 | [2] 0.067 | [3] 0.041 | quisinostat -0.061 | tipifarnib -0.01 | [4] 0.019 | [5] -0.02 | [6] 0.022

GOLGA8R (UniProt I6L899)
inactive: nilotinib 0.066 | [1] -0.047 | dasatinib 0.007 | [2] 0.168 | [3] -0.097 | quisinostat -0.404 | tipifarnib 0.118 | [4] 0.057 | [5] 0.04 | [6] -0.246

GNE isoform 2 (UniProt Q9Y223)
inactive: nilotinib -0.013 | [1] -0.003 | dasatinib 0.003 | [2] -0.081 | [3] 0.025 | quisinostat -0.042 | tipifarnib 0.008 | [4] 0.061 | [5] -0.008 | [6] -0.006

GPR107 isoform 2 (UniProt Q5VW38)
inactive: nilotinib -0.025 | [1] 0.05 | dasatinib 0.046 | [2] -0.027 | [3] 0.028 | quisinostat -0.024 | tipifarnib -0.066 | [4] 0.032 | [5] -0.02 | [6] -0.081

Copied from the listing (two entries):
GNE isoform 2 (UniProt Q9Y223)
inactive: nilotinib -0.013 | [1] -0.003 | dasatinib 0.003 | [2] -0.081 | [3] 0.025 | quisinostat -0.042 | tipifarnib 0.008 | [4] 0.061 | [5] -0.008 | [6] -0.006

GPR107 isoform 2 (UniProt Q5VW38)
inactive: nilotinib -0.025 | [1] 0.05 | dasatinib 0.046 | [2] -0.027 | [3] 0.028 | quisinostat -0.024 | tipifarnib -0.066 | [4] 0.032 | [5] -0.02 | [6] -0.081

Additional results:

GNA11 (UniProt P29992)
inactive: nilotinib 0.003 | [1] -0.001 | dasatinib 0.021 | [2] -0.003 | [3] 0.039 | quisinostat 0.04 | tipifarnib -0.009 | [4] -0.004 | [5] 0.022 | [6] 0.025

GMFB (UniProt P60983)
inactive: nilotinib 0.049 | [1] 0.037 | dasatinib 0.052 | [2] -0.016 | [3] 0.019 | quisinostat 0.033 | tipifarnib 0.046 | [4] 0.028 | [5] -0.018 | [6] -0.034

GK (UniProt P32189)
inactive: nilotinib 0.017 | [1] -0.014 | dasatinib 0.015 | [2] -0.055 | [3] 0.017 | quisinostat -0.008 | tipifarnib -0.029 | [4] -0.021 | [5] -0.006 | [6] 0.025

GPSM2 (UniProt P81274)
inactive: nilotinib -0.175 | [1] 0.125 | dasatinib 0.115 | [2] 0.255 | [3] 0.135 | quisinostat -0.299 | tipifarnib 0.043 | [4] 0.014 | [5] -0.188 | [6] 0.007

GNPDA2 (UniProt Q8TDQ7)
inactive: nilotinib -0.027 | [1] 0 | dasatinib -0.01 | [2] -0.007 | [3] 0.014 | quisinostat 0.031 | tipifarnib -0.081 | [4] 0.004 | [5] 0.002 | [6] 0.038
